Results published in PubChem BioAssay AID1347075 (National Center for Advancing Translational Sciences (NCATS), 2019).
Values joined by “and” are separate entries in the source; they are usually repeats but may differ in a detail not shown here. Identical values can stand only once. The whole screen tested about 400,000 compounds, of which about 5,500 (1.4%) were called active. This list was built around the results that the source calls inconclusive (neither active nor inactive); the mix of calls is not that of the screen. Calls come from the whole dose curve; as a rule, active = well fitted cell-killing curve with a large enough effect; inconclusive = small, poorly fitted or top-dose-only effect, or effect the other way; inactive = flat fitted curve, though single readings scatter. Where the call is inconclusive, the potency comes from a doubtful curve fit.

Assay: qHTS assay for MDR1-selective chemotherapeutics: Primary screen using the parental adenocarcinoma cell KB-3-1; note: nearly all actives have a fitted effect of over 60% in size
Conditions: KB-3-1 viability, CellTiter-Glo ATP luminescence, 72 h; series mostly up to 46.1 µM
Summary of the method: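 Parental KB-3-1 adenocarcinoma cells in phenol-red-free DMEM with 10% FBS were pin-treated with compounds at several concentrations, incubated 72 h at 37 °C, and viability read by CellTiter-Glo luminescence; concentration-effect curves were fitted after normalization.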
Potency is the fitted concentration of half-maximal effect.

Structure (SMILES) | Potency
COc1cccc(CNC(=O)c2ccc(S(=O)(=O)N3CCOCC3)cc2)c1 | inconclusive: 16.4 µM [rising, partial curve, poor fit]
Fc1cccc(Nc2c3c(nc4ccccc24)CCC3)c1 | inconclusive: 23.1 µM [cytotoxic, partial curve, poor fit]
CC1CC(C)(C)OC(C[N+]2(C)CCCCC2)O1 (stereo not given) | inactive
CN(C)CC(O)COc1ccc(C(C)(C)c2ccc(OCC(O)CN(C)C)cc2)cc1 (stereo not given) | inconclusive: 22.4 µM [cytotoxic, single point]
Cc1cc(N2CCOCC2)c2c(N)c(Br)cc(C)c2n1 | inconclusive: 20.6 µM [cytotoxic, single point]
CCCC(=O)NC(c1ccc(OC)c(OC)c1)c1cc(Cl)c2cccnc2c1O (stereo not given) | inconclusive: 29.1 µM [cytotoxic, single point] and inconclusive: 23.1 µM [cytotoxic, single point]
CN(C)CCNC(=O)COc1ccc(C23CC4CC(CC(C4)C2)C3)cc1 | inconclusive: 23.1 µM [cytotoxic, single point]
COc1cc2c(cc1NC(=O)CN(C)Cc1ccc(OC)c(OC)c1)oc1ccccc12 | inconclusive: 29.1 µM [cytotoxic, single point]
COc1cccc(NC(=O)c2cc(-c3ccccn3)nc3ccccc23)c1 | inconclusive: 5.17 µM [rising, full curve]
CC1CCCCN1S(=O)(=O)c1ccc(C(=O)Nc2nnc(-c3ccncc3)o2)cc1 (stereo not given) | inconclusive: 23.1 µM [cytotoxic, partial curve, poor fit]
O=C(c1cc(N2C(=O)C3C4CCC(C4)C3C2=O)ccc1Cl)N1CCN(c2ccccc2F)CC1 (stereo not given) | inconclusive: 18.4 µM [cytotoxic, partial curve, poor fit]
CCOC(=O)[C@]12CCC=C1N(CCC1=CCCCC1)C(=O)[C@H](CC(=O)N1CCSCC1)C2 | inactive
O=C1NC[C@@H](c2ccccc2)OC(=O)[C@H](Cc2ccc(F)cc2)C/C=C\C[C@H]1CC(=O)N(CCO)Cc1ccccc1 | inactive
Nc1ncnc2c1cnn2C1CC(O)C(CO)O1 (stereo not given) | inconclusive: 1.46 µM [cytotoxic, full curve, poor fit]
Cc1cc(C)cc(NC(=O)Cn2cc(S(=O)(=O)NC(C)(C)C)c(S(=O)(=O)NC(C)(C)C)c2)c1 | inconclusive: 29.1 µM [cytotoxic, single point]
O=C(NCCN1CCOCC1)C1CC(=O)N(c2ccc(Cl)cc2)C1 (stereo not given) | inactive
COc1ccc(NC(=S)NCc2cccnc2)cc1 | inconclusive: 3.66 µM [rising, partial curve, poor fit]
CC(C)=CCc1c(O)cc2oc3c(CC=C(C)C)c(O)c(O)c(CC=C(C)C)c3c(=O)c2c1O | inconclusive: 29.1 µM [cytotoxic, single point]
Nc1nc2ccccc2n1C(=O)c1ccco1 | inactive
CCCCCCOC(=O)NCC(O)c1ccccc1 (stereo not given) | inconclusive: 0.231 µM [cytotoxic, partial curve, poor fit]
C/C=C(\C)C(=O)NNC(=O)c1sc(-c2ccccc2)nc1C | inconclusive: 29.1 µM [rising, single point]
Cc1ccc(S(=O)(=O)Nc2cccc3ncccc23)s1 | active: 5.8 µM

Structure (SMILES) | Potency
CCN(CC)S(=O)(=O)c1ccc(N2CCc3ccccc3C2)nc1 | inconclusive: 29.1 µM [cytotoxic, single point]
O=C(N/N=C/c1ccc([N+](=O)[O-])o1)c1ccc(O)cc1 | inconclusive: 29.1 µM [cytotoxic, partial curve, poor fit]
COc1ccc(C(=O)Cn2c(C(C)=O)nc3ccccc32)cc1 | inconclusive: 20.6 µM [cytotoxic, single point]
Cc1[nH]nc(C(=O)NN=Cc2ccccc2Cl)c1N=NN(C)C | inactive
O=C(Nc1ccc2c(c1)nc1n2CCSC1)c1ccccc1 | inconclusive: 20.6 µM [cytotoxic, single point]
CC(CCc1ccccc1)NC(=O)CCNC(=O)Cn1ccc2ccccc2c1=O (stereo not given) | inactive
O=[N+]([O-])/C=C\c1ccc(N2CCCC2)c(F)c1 | inconclusive: 18.4 µM [cytotoxic, single point]
COc1ccc(N(C)S(=O)(=O)c2ccc(Cl)c(C(=O)NCCc3ccc(Cl)cc3)c2)cc1 | inconclusive: 23.1 µM [cytotoxic, single point]
COc1ccccc1/C=C/CN1CCN(Cc2ccc(F)cc2)C(CCO)C1 (stereo not given) | inactive
COc1cccc2c1C(=N)c1c(O)c3c(c(O)c1C2=O)CC(O)(C(C)=O)CC3OC1CC(N)C(O)C(C)O1 (stereo not given) | inconclusive: 1.64 µM [cytotoxic, full curve, poor fit]
COc1ccccc1Oc1ccc(N/C=C2/CCCC2=O)cc1 | inconclusive: 29.1 µM [cytotoxic, single point]
O=C(N/N=C/c1cc(Cl)ccc1O)c1ccc(Br)cc1 | inconclusive: 14.6 µM [cytotoxic, partial curve, poor fit]
O=C1[C@H](Cc2ccccc2)NC/C=C\C[C@@H](c2ccc(Cl)cc2)N1Cc1ccccc1 | inconclusive: 23.1 µM [cytotoxic, single point]
CC(C)c1ccc2c(c1)NC(c1ccncc1)=NC(c1cccs1)=N2 | inactive
COc1cccc(NC(CNS(=O)(=O)c2ccc(Cl)cc2)c2ccccc2)c1 (stereo not given) | active: 18.4 µM
NS(=O)(=O)c1ccc(NC(=O)COC(=O)c2c3c(nc4ccccc24)/C(=C\c2ccc4c(c2)OCO4)CCC3)cc1 | inconclusive: 29.1 µM [cytotoxic, single point]
Cc1ccc(Cl)cc1N1CCN(C(=O)c2ccc3c(c2)N(Cc2ccccc2F)C(=O)c2ccccc2S3=O)CC1 (stereo not given) | inactive
C(=C\c1nnc2c3ccccc3ncn12)/c1ccccc1 | active: 11.6 µM
Cc1nn(-c2ccccc2)c(C)c1C(=O)OC(C)C(=O)NC1CCCCC1 (stereo not given) | inactive
COc1ccc(N/N=C(\C#N)C(=N)SCc2ccccc2)cc1 | inactive
COc1ccc(Nc2cnn(-c3nc4ccccc4s3)c(=O)c2Cl)cc1 | inconclusive: 16.4 µM [rising, single point]
O=C(Nc1ccc(Br)cc1)c1cc(-c2ccncc2)nc2ccccc12 | inconclusive: 20.6 µM [cytotoxic, single point]

Structure (SMILES) | Potency
CC(=O)c1cccc(-c2ccnc3c2CC(C(=O)Nc2cccc(Oc4ccccc4)c2)O3)c1 (stereo not given) | inconclusive: 29.1 µM [cytotoxic, single point]
CN(CC(=O)Nc1ccc(Cl)cc1)C(=O)c1ccc(N2CCCC2=O)cc1 | inconclusive: 25.9 µM [cytotoxic, single point]
C[C@@H](c1ccccc1)N1C[C@@H](COCc2ccccc2)Oc2cc(N3CC[C@H](N(C)C)C3)ccc2S1(=O)=O | inconclusive: 29.1 µM [cytotoxic, single point]
c1ccc(-c2nc3nonc3nc2-c2ccccc2)cc1 | inactive
COc1ccc(C(C(=O)NC(C)(C)C)n2c(=O)c(-c3cc4ccccc4[nH]3)nc3ccccc32)cc1 (stereo not given) | inconclusive: 29.1 µM [cytotoxic, single point]
O=C(Nc1ccc(C(=O)N2CCCCC2)cc1)c1cccs1 | inconclusive: 20.6 µM [cytotoxic, single point]
Cc1c(/C=N/NC(=O)c2cccs2)c2ccccc2n1Cc1ccccc1Cl | inconclusive: 9.2 µM [cytotoxic, partial curve, poor fit]
C[C@H](CO)N1C[C@H](C)[C@H](CN(C)C(=O)Cc2ccccc2)OCc2cnnn2CCCC1=O | inconclusive: 0.58 µM [rising, full curve, poor fit]
CCc1ccccc1NC(=O)CC(c1ccc(OC)cc1)n1cccc1 (stereo not given) | inactive
O=C1NC[C@@H](CCCCN2C[C@H](Cc3ccccc3)N(CC3CCCCC3)C(=O)C2=O)N(Cc2ccccc2)C1=O | inactive
Cc1cccc(N2CCN(C(=O)CCNS(=O)(=O)c3ccc4c(c3)oc(=O)n4C)CC2)c1C | inconclusive: 29.1 µM [cytotoxic, single point]
COC(=O)CSc1ccc(S(=O)(=O)N2CCCCCC2)cc1[N+](=O)[O-] | inactive
Cc1ccc(N2CCN(S(=O)(=O)c3ccc4c(c3)NC(=O)C(C)C(=O)N4)CC2C)cc1 (stereo not given) | inconclusive: 23.1 µM [cytotoxic, single point]
Cc1cccc(NC(=O)C2(c3cccs3)CCOCC2)n1 | inactive
CC(C)c1ccc(C2CC(c3ccc(Br)cc3)=NN2C(N)=S)cc1 (stereo not given) | inconclusive: 18.4 µM [cytotoxic, single point]
CCn1c(=NC(=O)c2ccc(S(=O)(=O)N3CCCC3)cc2)sc2cc(Br)ccc21 | inactive
Cc1ccc(C(C(=O)NC2CCCCC2)N(Cc2ccccc2)C(=O)Cc2c[nH]c3ccccc23)o1 (stereo not given) | inconclusive: 18.4 µM [cytotoxic, single point]
CCc1ccc(N2C(=O)CSC23C(=O)N(Cc2cccc(OC)c2)c2ccccc23)cc1 (stereo not given) | inconclusive: 23.1 µM [cytotoxic, single point]
Cc1cc(C)c(/C=N/NC(=O)c2nnn(-c3nonc3N)c2CN2CCC(C)CC2)c(C)c1 | inconclusive: 5.8 µM [cytotoxic, partial curve]
CCCC1(c2ccccc2)NC(=O)N(CC(=O)c2[nH]c(C)c(C(=O)OCC)c2C)C1=O (stereo not given) | inconclusive: 20.6 µM [cytotoxic, single point]
CCCOc1ccc(C(=O)NNC(=S)NC(=O)c2cccs2)cc1 | inconclusive: 8.2 µM [cytotoxic, partial curve]
